Experimental data as given in US5698672A, “Synthetic calcitonin mimetics” (ZymoGenetics, Inc., priority 1995, dated 1997).
Part of at least one peptide drawing is inferred or uncertain, most often the ends.

System: osteoclasts in mouse calvariae
Assay: Calvaria histology: osteoclast number and size
Format: cell-based
Conditions: histomorphometry, TRAP stain
Description: To confirm the findings in the calvarial bone resorption assay employing calcium release from culture mouse calvariae, selected bones were fixed in 10% neutral buffered formalin and demineralized in 5% formic acid with 5% formalin. The bones were dehydrated through an ascending series of ethanol concentrations, infiltrated in glycol methacrylate, and embedded using a JB-4 embedding kit (PolySciences, Warrington, Pa.) (Liu and Kalu, J. Bone Miner. Res., 5:973-82, 1990). Cross sections of calvariae cut at […] were obtained and stained for tartrate-resistant acid phosphatase (TRAP) activity and counterstained with methyl green and thionin for cell morphology (Liu and Kalu, J. Bone. Miner. Res. 1990, supra). osteoclasts were identified by TRAP stain, multinucleation, large cell size, and irregular cell shape. The number of osteoclasts were counted from endocranial and ectocranial bone surfaces and expressed as number/mm perimeter. The size of all the osteoclasts counted was also measured using a Bone Morphometry program (Lui and Kalu, supra.; Bain et al., J. Bone Miner. Res. 8:435-42, 1993). […] This PTH-induced increase was suppressed by treatment with human calcitonin.
Calcitonin mimetic compounds were evaluated in a similar fashion for their ability to suppress PTH-induced increases in osteoclast number and size. Cell toxicity (or death) was also evaluated morphologically. […]

In the case of `CC[C@H](C)[C@H](NC(=O)[C@H](CCC(=O)O)NC(=O)[C@H](CO)NC(=O)[C@@H](NC(=O)[C@@H](N)CO)C(C)C)C(=O)N[C@@H](CCC(N)=O)C(=O)N[C@@H](CC(C)C)C(=O)N[C@@H](CCSC)C(=O)N[C@@H](Cc1c[nH]cn1)C(=O)N[C@@H](CC(N)=O)C(=O)N[C@@H](CC(C)C)C(=O)NCC(=O)N[C@@H](CCCCN)C(=O)N[C@@H](Cc1c[nH]cn1)C(=O)N[C@@H](CC(C)C)C(=O)N[C@@H](CC(N)=O)C(=O)N[C@@H](CO)C(=O)N[C@@H](CCSC)C(=O)N[C@@H](CCC(=O)O)C(=O)N[C@@H](CCCNC(=N)N)C(=O)N[C@H](C(=O)N[C@@H](CCC(=O)O)C(=O)N[C@@H](Cc1c[nH]c2ccccc12)C(=O)N[C@@H](CC(C)C)C(=O)N[C@@H](CCCNC(=N)N)C(=O)N[C@@H](CCCCN)C(=O)N[C@@H](CCCCN)C(=O)N[C@@H](CC(C)C)C(=O)N[C@@H](CCC(N)=O)C(=O)N[C@@H](CC(=O)O)C(=O)N[C@H](C(=O)N[C@@H](Cc1c[nH]cn1)C(=O)N[C@@H](CC(N)=O)C(=O)N[C@@H](Cc1ccccc1)C(=O)O)C(C)C)C(C)C` [human parathyroid hormone (PTH 1-34)], the “Effect on number and size of osteoclasts” value is reported as “increases in the number and size of osteoclasts”.
